# Source: patent US20250222062A1, “PEPTIDE INHIBITORS TARGETING THE TBL1-BETA-CATENIN COMPLEX” (THE TRANSLATIONAL GENOMICS RESEARCH INSTITUTE, priority 2022, published 2025)
# No constants are given. Whether binding was seen depends on the method and setting. Some results given as binding are weak or reduced against the parent protein; the word gives no strength. Tags and fused reporters may be left off the sequences shown.
# T1: Transducin Beta-like protein 1 (TBL1) (UniProt O60907)
# T1 sequence (looked up): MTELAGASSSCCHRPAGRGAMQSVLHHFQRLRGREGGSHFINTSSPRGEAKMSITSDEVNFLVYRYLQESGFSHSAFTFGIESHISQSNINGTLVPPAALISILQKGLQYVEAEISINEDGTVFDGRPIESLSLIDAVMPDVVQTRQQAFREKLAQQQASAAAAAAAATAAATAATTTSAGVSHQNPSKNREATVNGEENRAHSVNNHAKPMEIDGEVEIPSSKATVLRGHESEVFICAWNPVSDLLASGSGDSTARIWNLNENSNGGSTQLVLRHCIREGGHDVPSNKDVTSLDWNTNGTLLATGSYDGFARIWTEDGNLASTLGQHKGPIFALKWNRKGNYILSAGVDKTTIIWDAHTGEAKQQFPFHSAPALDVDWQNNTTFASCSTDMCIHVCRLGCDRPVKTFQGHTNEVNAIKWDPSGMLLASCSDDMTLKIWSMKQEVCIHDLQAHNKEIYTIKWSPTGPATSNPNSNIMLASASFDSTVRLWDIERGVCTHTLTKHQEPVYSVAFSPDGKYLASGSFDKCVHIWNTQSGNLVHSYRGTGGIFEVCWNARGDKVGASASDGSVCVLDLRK
# Biological target: T1, Transducin Beta-like protein 1 (TBL1)
# Assay: ELISA, dansyl fluorescence of the tagged peptide on TBL1 protein
row,Binder,binding
1,HQLSKKEASRHAIMRSPQMVSAIVRTMQNTNDVETARCTAGTLH (dansyl tag (position not given)) [dansyl-tagged Peptide 1],binds
2,VDSVLFYAITTLHNLLLHQEGAKMAVRLAGGLQKMVALLNKTNV (dansyl tag (position not given)) [dansyl-tagged Peptide 2],binds

# Continued, values first:
row,binding,Binder
1,binds,LKVLSVCSSNKPAIVEAGGMQALGLHLTDPSQRLVQNCLWTLRN (dansyl tag (position not given)) [dansyl-tagged Peptide 4]
2,binds,NQESKLIILASGGPQALVNIMRTYTYEKLLWTTSRVLKVLSVCS (dansyl tag (position not given)) [dansyl-tagged Peptide 3]
3,binds,VVTCAAGILSNLTCNNYKNKMMVCQVGGIEALVRTVLRAGDRED (dansyl tag (position not given)) [dansyl-tagged Peptide 5]
